This passage reports binding results from publication PMC7446834.

Chains of the proteins cited; added tags and fusions are not shown.
UniProt P45983: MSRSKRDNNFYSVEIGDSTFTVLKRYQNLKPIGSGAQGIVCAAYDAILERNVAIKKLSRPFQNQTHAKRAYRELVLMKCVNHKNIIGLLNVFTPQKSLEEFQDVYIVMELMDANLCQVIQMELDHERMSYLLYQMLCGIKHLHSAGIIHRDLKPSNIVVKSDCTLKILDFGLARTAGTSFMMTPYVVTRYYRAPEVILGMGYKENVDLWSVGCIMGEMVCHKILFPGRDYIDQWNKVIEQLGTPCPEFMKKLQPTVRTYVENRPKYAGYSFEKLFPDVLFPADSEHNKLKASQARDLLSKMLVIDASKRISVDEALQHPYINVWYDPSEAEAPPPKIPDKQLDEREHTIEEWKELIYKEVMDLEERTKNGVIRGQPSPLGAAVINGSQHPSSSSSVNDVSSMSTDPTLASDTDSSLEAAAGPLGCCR

Results are given in words; binding and its absence hold for the method and conditions named. In cells and extracts the contact can be indirect. Some binding calls cover weakened binding; strength is not graded here.

The target in test [1] is c-Jun N-terminal kinase 2 (JNK2, of JNK1/2) (human (endogenous in HUVECs)) (UniProt P45984). Nature of the test: co-IP; endogenous proteins in lysates of HUVECs transduced with lentiviral vIRF1 or control pHAGE; JNK1/2 immunoprecipitated; IP lysis/wash buffer with protein inhibitor cocktail; beads washed, eluted, Western blot.
Test [2] has as its target c-Jun N-terminal kinase 1 (JNK1, of JNK1/2) (human (endogenous in HUVECs)) (UniProt P45983). The description is as above.

B1: Mitogen-activated protein kinase kinase 4 (MKK4) (enzyme, UniProt P45985 1-399)
chain: MAAPSPSGGGGSGGGSGSGTPGPVGSPAPGHPAVSSMQGKRKALKLNFANPPFKSTARFTLNPNPTGVQNPHIERLRTHSIESSGKLKISPEQHWDFTAEDLKDLGEIGRGAYGSVNKMVHKPSGQIMAVKRIRSTVDEKEQKQLLMDLDVVMRSSDCPYIVQFYGALFREGDCWICMELMSTSFDKFYKYVYSVLDDVIPEEILGKITLATVKALNHLKENLKIIHRDIKPSNILLDRSGNIKLCDFGISGQLVDSIAKTRDAGCRPYMAPERIDPSASRQGYDVRSDVWSLGITLYELATGRFPYPKWNSVFDQLTQVVKGDPPQLSNSEEREFSPSFINFVNLCLTKDESKRPKYKELLKHPFILMYEERAVEVACYVCKILDQMPATPSSPMYVD
B1: the binding entry in test [1] and in test [2] was “binds” each time.

B2: Sperm associated antigen 9 (SPAG9) (protein, UniProt O60271 1-1321)
chain: MELEDGVVYQEEPGGSGAVMSERVSGLAGSIYREFERLIGRYDEEVVKELMPLVVAVLENLDSVFAQDQEHQVELELLRDDNEQLITQYEREKALRKHAEEKFIEFEDSQEQEKKDLQTRVESLESQTRQLELKAKNYADQISRLEEREAELKKEYNALHQRHTEMIHNYMEHLERTKLHQLSGSDQLESTAHSRIRKERPISLGIFPLPAGDGLLTPDAQKGGETPGSEQWKFQELSQPRSHTSLKVSNSPEPQKAVEQEDELSDVSQGGSKATTPASTANSDVATIPTDTPLKEENEGFVKVTDAPNKSEISKHIEVQVAQETRNVSTGSAENEEKSEVQAIIESTPELDMDKDLSGYKGSSTPTKGIENKAFDRNTESLFEELSSAGSGLIGDVDEGADLLGMGREVENLILENTQLLETKNALNIVKNDLIAKVDELTCEKDVLQGELEAVKQAKLKLEEKNRELEEELRKARAEAEDARQKAKDDDDSDIPTAQRKRFTRVEMARVLMERNQYKERLMELQEAVRWTEMIRASRENPAMQEKKRSSIWQFFSRLFSSSSNTTKKPEPPVNLKYNAPTSHVTPSVKKRSSTLSQLPGDKSKAFDFLSEETEASLASRREQKREQYRQVKAHVQKEDGRVQAFGWSLPQKYKQVTNGQGENKMKNLPVPVYLRPLDEKDTSMKLWCAVGVNLSGGKTRDGGSVVGASVFYKDVAGLDTEGSKQRSASQSSLDKLDQELKEQQKELKNQEELSSLVWICTSTHSATKVLIIDAVQPGNILDSFTVCNSHVLCIASVPGARETDYPAGEDLSESGQVDKASLCGSMTSNSSAETDSLLGGITVVGCSAEGVTGAATSPSTNGASPVMDKPPEMEAENSEVDENVPTAEEATEATEGNAGSAEDTVDISQTGVYTEHVFTDPLGVQIPEDLSPVYQSSNDSDAYKDQISVLPNEQDLVREEAQKMSSLLPTMWLGAQNGCLYVHSSVAQWRKCLHSIKLKDSILSIVHVKGIVLVALADGTLAIFHRGVDGQWDLSNYHLLDLGRPHHSIRCMTVVHDKVWCGYRNKIYVVQPKAMKIEKSFDAHPRKESQVRQLAWVGDGVWVSIRLDSTLRLYHAHTYQHLQDVDIEPYVSKMLGTGKLGFSFVRITALMVSCNRLWVGTGNGVIISIPLTETNKTSGVPGNRPGSVIRVYGDENSDKVTPGTFIPYCSMAHAQLCFHGHRDAVKFFVAVPGQVISPQSSSSGTDLTGDKAGPSAQEPGSQTPLKSMLVISGGEGYIDFRMGDEGGESELLGEDLPLEPSVTKAERSHLIVWQVMYGNE
On to B2, for which the binding entry in test [1] and in test [2] was “binds” in each case.
